# Data reported in paper doi:10.1101/2024.10.03.616587.
# Chains of the proteins cited; added tags and fusions are not shown. Lines headed by an entry give the natural chain unless they say otherwise; changes in a name come on top.
# UniProt Q14722: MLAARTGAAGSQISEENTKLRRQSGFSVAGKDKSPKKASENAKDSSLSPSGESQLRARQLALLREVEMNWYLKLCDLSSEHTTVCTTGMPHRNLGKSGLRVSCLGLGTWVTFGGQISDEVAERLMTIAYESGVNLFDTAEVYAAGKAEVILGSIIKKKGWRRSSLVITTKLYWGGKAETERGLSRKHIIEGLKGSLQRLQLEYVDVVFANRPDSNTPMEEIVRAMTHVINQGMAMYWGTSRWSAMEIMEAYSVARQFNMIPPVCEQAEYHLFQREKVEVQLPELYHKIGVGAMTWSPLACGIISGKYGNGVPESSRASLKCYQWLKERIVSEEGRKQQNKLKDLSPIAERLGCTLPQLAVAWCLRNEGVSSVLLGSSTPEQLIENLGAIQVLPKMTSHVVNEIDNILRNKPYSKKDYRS
# UniProt P22460: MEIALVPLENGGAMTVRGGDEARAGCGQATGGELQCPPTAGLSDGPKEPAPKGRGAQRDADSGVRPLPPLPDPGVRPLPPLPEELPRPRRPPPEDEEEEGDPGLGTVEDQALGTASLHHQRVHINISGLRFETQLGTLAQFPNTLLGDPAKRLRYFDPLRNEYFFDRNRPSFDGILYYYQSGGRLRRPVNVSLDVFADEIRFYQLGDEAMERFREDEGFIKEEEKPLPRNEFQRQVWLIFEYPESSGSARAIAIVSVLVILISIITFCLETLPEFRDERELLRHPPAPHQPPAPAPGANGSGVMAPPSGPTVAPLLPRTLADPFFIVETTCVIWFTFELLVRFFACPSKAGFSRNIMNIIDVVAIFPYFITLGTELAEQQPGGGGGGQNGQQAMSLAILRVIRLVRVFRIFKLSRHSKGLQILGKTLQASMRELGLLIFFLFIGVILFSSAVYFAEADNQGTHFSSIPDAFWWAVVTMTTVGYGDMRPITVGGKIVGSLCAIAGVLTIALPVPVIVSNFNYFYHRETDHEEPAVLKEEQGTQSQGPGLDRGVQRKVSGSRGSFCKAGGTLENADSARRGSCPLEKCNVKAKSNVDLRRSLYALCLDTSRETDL
# Target: KVβ1.2 subunit (UniProt Q14722)
# Test: co-IP
row,binding,Molecule
1,binds,KV1.5 channel (from UniProt P22460 1-613)
2,binds,"Lgi3, FLAG-tagged (protein, UniProt Q8N145 31-548) KRPPKTPPCPPSCSCTRDTAFCVDSKAVPRNLPSEVISLTLVNAAFSEIQDGAFSHLPLLQFLLLNSNKFTLIGDNAFTGLSHLQYLFIENNDIWALSKFTFRGLKSLTHLSLANNNLQTLPRDIFRPLDILNDLDLRGNSLNCDCKVKWLVEWLAHTNTTVAPIYCASPPRFQEHKVQDLPLREFDCITTDFVLYQTLAFPAVSAEPFLYSSDLYLALAQPGVSACTILKWDYVERQLRDYDRIPAPSAVHCKPMVVDSQLYVVVAQLFGGSYIYHWDPNTTRFTRLQDIDPQRVRKPNDLEAFRIDGDWYFAVADSSKAGATSLYRWHQNGFYSHQALHPWHRDTDLEFVDGEGKPRLIVSSSSQAPVIYQWSRTQKQFVAQGEVTQVPDAQAVKHFRAGRDSYLCLSRYIGDSKILRWEGTRFSEVQALPSRGSLALQPFLVGGRRYLALGSDFSFTQIYQWDEGRQKFVRFQELAVQAPRAFCYMPAGDAQLLLAPSFKGQTLVYRHIVVDLSA"

# Results are given in words; binding and its absence hold for the method and conditions named. Binding seen in cells or lysates may run through a third protein. A result given as binding can be weak or reduced; the word gives no strength. Tags and fused reporters may be left off the sequences shown.
